Screening data, single-dose tests

Protein sequences, listed by entry. Tags and fused reporters are not part of them. Residues count along the entry.
UniProt Q8IDJ8, 1-583: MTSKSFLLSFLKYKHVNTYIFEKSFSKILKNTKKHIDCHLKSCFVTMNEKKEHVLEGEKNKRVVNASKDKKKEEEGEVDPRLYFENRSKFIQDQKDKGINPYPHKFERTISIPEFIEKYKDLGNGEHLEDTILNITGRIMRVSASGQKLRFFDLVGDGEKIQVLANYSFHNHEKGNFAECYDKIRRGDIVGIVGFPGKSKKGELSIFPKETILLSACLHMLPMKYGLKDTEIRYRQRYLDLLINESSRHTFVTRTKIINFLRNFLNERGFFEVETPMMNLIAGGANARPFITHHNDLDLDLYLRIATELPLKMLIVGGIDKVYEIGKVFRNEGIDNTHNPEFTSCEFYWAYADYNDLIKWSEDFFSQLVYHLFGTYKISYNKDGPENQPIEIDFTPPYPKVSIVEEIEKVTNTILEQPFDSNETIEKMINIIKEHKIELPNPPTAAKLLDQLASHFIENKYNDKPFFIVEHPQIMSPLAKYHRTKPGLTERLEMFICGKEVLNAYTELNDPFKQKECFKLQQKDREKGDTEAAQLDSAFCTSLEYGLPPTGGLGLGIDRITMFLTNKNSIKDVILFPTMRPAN
UniProt Q4DA54, 1-478: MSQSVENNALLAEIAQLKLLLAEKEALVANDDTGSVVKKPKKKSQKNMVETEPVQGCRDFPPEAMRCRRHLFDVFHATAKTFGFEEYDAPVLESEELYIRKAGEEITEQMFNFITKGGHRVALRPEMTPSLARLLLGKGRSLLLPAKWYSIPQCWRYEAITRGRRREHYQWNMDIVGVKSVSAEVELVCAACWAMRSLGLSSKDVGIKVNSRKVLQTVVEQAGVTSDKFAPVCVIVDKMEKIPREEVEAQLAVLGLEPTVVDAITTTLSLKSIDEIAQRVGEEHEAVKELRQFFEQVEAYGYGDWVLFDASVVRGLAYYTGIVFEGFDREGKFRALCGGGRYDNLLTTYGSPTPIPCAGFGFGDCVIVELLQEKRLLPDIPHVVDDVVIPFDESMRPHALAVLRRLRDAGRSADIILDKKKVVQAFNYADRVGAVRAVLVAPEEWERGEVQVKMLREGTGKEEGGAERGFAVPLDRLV
UniProt I6X8D2, whole entry: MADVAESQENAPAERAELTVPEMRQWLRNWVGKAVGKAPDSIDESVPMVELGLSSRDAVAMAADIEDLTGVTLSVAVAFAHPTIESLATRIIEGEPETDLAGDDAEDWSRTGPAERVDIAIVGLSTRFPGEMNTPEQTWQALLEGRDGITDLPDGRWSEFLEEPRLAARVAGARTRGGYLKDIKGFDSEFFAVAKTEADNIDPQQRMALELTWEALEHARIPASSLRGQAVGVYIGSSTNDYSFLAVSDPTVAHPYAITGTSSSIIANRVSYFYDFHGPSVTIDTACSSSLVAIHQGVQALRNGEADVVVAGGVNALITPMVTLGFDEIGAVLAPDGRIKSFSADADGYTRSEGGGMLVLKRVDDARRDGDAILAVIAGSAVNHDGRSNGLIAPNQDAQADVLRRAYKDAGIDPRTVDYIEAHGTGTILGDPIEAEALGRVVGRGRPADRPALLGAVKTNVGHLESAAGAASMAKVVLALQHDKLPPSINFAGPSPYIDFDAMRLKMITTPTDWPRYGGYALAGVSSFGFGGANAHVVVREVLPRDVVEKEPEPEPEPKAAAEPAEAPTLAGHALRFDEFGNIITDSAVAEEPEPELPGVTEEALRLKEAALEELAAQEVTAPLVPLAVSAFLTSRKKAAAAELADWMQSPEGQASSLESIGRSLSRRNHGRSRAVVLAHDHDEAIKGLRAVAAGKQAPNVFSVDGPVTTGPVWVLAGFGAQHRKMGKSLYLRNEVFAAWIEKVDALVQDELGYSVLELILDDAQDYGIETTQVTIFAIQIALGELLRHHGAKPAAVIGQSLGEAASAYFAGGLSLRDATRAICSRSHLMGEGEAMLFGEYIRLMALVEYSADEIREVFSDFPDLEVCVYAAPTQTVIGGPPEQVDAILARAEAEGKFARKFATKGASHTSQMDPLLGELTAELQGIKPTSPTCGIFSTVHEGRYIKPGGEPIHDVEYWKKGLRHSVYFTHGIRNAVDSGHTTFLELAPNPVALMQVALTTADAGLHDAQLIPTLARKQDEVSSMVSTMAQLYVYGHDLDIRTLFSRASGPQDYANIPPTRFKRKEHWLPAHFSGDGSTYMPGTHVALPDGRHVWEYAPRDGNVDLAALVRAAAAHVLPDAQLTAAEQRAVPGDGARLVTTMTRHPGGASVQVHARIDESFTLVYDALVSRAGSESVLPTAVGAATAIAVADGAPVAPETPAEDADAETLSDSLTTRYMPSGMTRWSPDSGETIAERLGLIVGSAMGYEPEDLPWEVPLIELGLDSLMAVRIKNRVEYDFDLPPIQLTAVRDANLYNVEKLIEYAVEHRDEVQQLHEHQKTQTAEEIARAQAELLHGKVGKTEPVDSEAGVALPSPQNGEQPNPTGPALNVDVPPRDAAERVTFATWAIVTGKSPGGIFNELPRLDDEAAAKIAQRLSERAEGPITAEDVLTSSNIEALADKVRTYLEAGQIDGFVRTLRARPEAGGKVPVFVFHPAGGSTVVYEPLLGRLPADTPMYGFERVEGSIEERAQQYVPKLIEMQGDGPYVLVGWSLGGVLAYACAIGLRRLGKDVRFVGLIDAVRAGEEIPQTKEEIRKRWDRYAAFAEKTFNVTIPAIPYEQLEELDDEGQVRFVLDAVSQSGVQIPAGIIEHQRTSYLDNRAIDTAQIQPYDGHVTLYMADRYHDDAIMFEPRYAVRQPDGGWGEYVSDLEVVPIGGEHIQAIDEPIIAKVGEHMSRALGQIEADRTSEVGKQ

From ChEMBL document CHEMBL3988442, “University of Dundee, Small-Polar-MMV Screening Library” (2021).

A: 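Enzyme assay of the cytosolic lysyl-tRNA synthetase in 384-well plates, read by luminescence. Target: Lysine-tRNA ligase, Plasmodium falciparum 3D7 (UniProt Q8IDJ8). Compounds at 30 µM. Higher reads as stronger inhibition, judged from the few compounds that gave an IC50. Size under these conditions: about 69,000 compounds, about 49 of them at 50% or above in at least one test.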
B: 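Enzyme assay of histidyl-tRNA synthetase; the read-out is not stated. Target: Histidine-tRNA ligase, Trypanosoma cruzi CL Brener (UniProt Q4DA54). Compounds at 30 µM. Direction is inferred from retests: higher values go with stronger inhibition. Size under these conditions: about 69,000 compounds, about 31 of them at 50% or above in at least one test.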
C: 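Cell assay of Leishmania donovani living inside macrophages; the read-out is not stated. Compounds at 30 µM. Higher reads as stronger inhibition (inferred: compounds with an IC50 in retests scored well above the rest). Of about 69,000 compounds tested this way, about 1,000 (1.5%) reached 50% or more in at least one test.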
D: 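Enzyme assay of the thioesterase domain of polyketide synthase 13; the read-out is not stated. Target: Polyketide synthase Pks13, Mycobacterium tuberculosis (UniProt I6X8D2). Concentration: 30 µM. The record gives no direction; the compounds picked for IC50 retests had high values, so higher reads as stronger inhibition. Size under these conditions: about 67,000 compounds, about 300 of them at 50% or above in at least one test.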

The filed quantity is “Percent Effect” (%).
The record does not define 0% and 100%; most values in the screen are far below 50% and negative numbers occur (in some assays of this library far below -100).
Compounds were drawn at random from those tested, without regard to their results.
Two or more numbers in one place are separate tests of the same structure; such repeats can differ widely.
A dash means the value is not listed here; it may have been measured.

- COc1ccc(C[C@H]2CN(C(=O)c3ccncc3)CC[C@@H]2OC)cc1.O=C(O)C(F)(F)F : C: 16.32%
- CCCc1noc(C(C)N2CC(n3cccn3)C2)n1 (configuration not stated) : A: 5.374%; B: -2.463%; C: -0.9976%; D: 14.48%
- Cc1nc(CN2CCN(Cc3ccoc3)Cc3cccnc32)cs1.O=C(O)C(F)(F)F.O=C(O)C(F)(F)F.O=C(O)C(F)(F)F : C: 17.99%
- CN(CCCOc1ccccc1Cl)C(=O)CN1CCNC1=O : A: 4.87%; B: 5.357%; C: -5.148%; D: -18.55%
- Cc1nn(C)c2c(NCc3cccnc3)nc(C3CC3)nc12 : A: -1.576%; B: 1.674%; C: -2.065%; D: -21.97%
- Cc1cnc(N2Cc3nccn3CC(Cn3ncccc3=O)C2)nc1.O=C(O)C(F)(F)F (configuration not stated) : C: 12.56%
- CCN(C1CCN(C(=O)c2cccc(Cl)c2)CC1)S(C)(=O)=O : A: 7.192%; B: 6.897%; C: 3.327%; D: -1.569%
- O=C(Nc1ccc(-n2ccnc2)c(F)c1)C1CCN(C(=O)C2CC2)CC1 : A: 3.198%; B: 5.759%; C: 18.77%; D: -47.47%
- O=C(O)C(F)(F)F.[H][C@@]12CCN(Cc3ccoc3)CC[C@]1([H])[C@@H](COC)CN(CC1CC1)C2=O : C: 5.517%
- CC(C)CNc1cc(-c2c[nH]nc2C2CCN(C(=O)C3CC3)C2)ccn1 (configuration not stated) : A: 1.5%; B: 6.818%; C: 60.8%; D: -9.853%
- COc1ccc(C(=O)NC2CCN(c3ncccn3)CC2)cc1F : A: 0.5922%; B: 12.73%; C: 5.825%; D: -18.17%
- Cc1cc(NC(C)C(=O)NCC(F)(F)F)nc(-c2ccncc2)n1 (configuration not stated) : A: 3.602%; B: 7.843%; C: 14.08%; D: -18.63%
- [H][C@]12OCCN(Cc3ccc(C)o3)[C@@]1([H])CC[C@@H]2OCc1cccnc1 : C: 1.228%
- Cc1c(Br)c(C(F)F)nn1C(C)C(=O)O (configuration not stated) : A: -0.3727%; B: 0.4464%; C: 4.199%; D: -13.4%
- Cc1cc(-c2cnc(N3CCSCC3)nc2-c2ccc(C)s2)on1 : A: 2.33%; B: 0%; C: 3.162% & 10.07%; D: 3.433%
- Fc1ccc(OCCCN2CC(n3cccn3)C2)cc1 : A: 1.937%; B: 6.186%; C: 22%; D: -33.2%
- CCc1ncc2c(n1)CN(CC(O)COc1ccc(C#N)cc1)CC2 (configuration not stated) : A: 0.697%; B: 10.1%; C: -4.671%; D: -25.68%
- CCOc1cccc(NC(=O)Cc2cccc(O)c2)n1 : A: 4.772%; B: 1.961%; C: -46.62%; D: -15.23%
- O=c1cccnn1CC1CN(Cc2ccsc2)Cc2nccn2C1 (configuration not stated) : A: 1.805%; B: 6.011%; D: -10.68%
- c1ccc(-c2noc(C3CCN(CCCn4cncn4)CC3)n2)cc1 : A: 3.715%; B: 2.809%; C: -27.87%; D: 10.21%
- CC(C)c1ccc(CN2CCC3(CCCN(c4nncs4)C3)C2)cc1.O=C(O)C(F)(F)F (configuration not stated) : C: 10.43%
- Cc1n[nH]c(SCC(=O)NC(c2ccncc2)C(C)C)n1 (configuration not stated) : A: -1.968%; B: 2.469%; C: -8.826%; D: -21.53%
- CCNC(=O)N1CCCCC1CCO (configuration not stated) : A: -0.6475%; B: -2.5%; C: 13.95%; D: 4.003%
- COc1cccc2c(C)c(C(=O)N3CCNCC3C(N)=O)[nH]c12.Cl (configuration not stated) : C: 38.42%
- CC(C)CCN1CC[C@H](c2nnc(Cc3c[nH]c4ccccc34)o2)C1 : A: 6.985%; B: 4.478%; C: 31.19%; D: -26.07%
- COc1cc(Cl)ccc1C(=O)NCc1nncn1C : A: -0.3296%; B: 0.5634%; C: 31.26%; D: -14.35%
- CCc1ccc(OCC(=O)N2CCN(CC)CC2)cc1 : A: 0.1195%; B: 5.952%; C: 30.34%; D: -49.46%
- COc1ccc(F)c(CN(CCCn2ccnc2)Cc2ccc(C)s2)c1.O=C(O)CC(O)(CC(=O)O)C(=O)O : C: 7.353% & -3.537%
- O=C(c1cc[nH]n1)N1CCCC(c2cccc(-n3ccnc3)n2)C1 (configuration not stated) : A: 6.545%; B: 4.301%; C: 29.79%; D: -32.35%
- Cc1ccc(CNCCCNS(C)(=O)=O)c(Br)c1 : A: 1.237%; B: 2.618%; C: 0.0792%; D: -40.66%
- CC(C)(C)C(=O)N1C[C@@H]2COC[C@]2(c2nnc(C3CC3)o2)C1 : A: 2.446%; B: 1.98%; D: -38.88%
- O=C(NCCC(=O)N1CCCC1)c1ccc(SCc2cccnc2)cc1 : A: 1.354%; B: 4.124%; C: 8.491%; D: 4.293%
- Cc1nc(O)c2nnn(C[C@H]3CCCN3C(=O)c3ccccc3F)c2n1 : A: 0.2482%; B: 2.128%; C: 8.096%

Once more, the final 3:

structure,A,B,C,D
CC(C)(C)C(=O)N1C[C@@H]2COC[C@]2(c2nnc(C3CC3)o2)C1,2.446,1.98,-,-38.88
O=C(NCCC(=O)N1CCCC1)c1ccc(SCc2cccnc2)cc1,1.354,4.124,8.491,4.293
Cc1nc(O)c2nnn(C[C@H]3CCCN3C(=O)c3ccccc3F)c2n1,0.2482,2.128,8.096,-